Test results from patent US20030091567A1.
Results are given in words; binding and its absence hold for the method and conditions named. Binding seen in cells or lysates may run through a third protein. Some results given as binding are weak or reduced against the parent protein; the word gives no strength.

By UniProt entry, the sequences of proteins in these tests, tags left out. Where a name states a change or a piece, a line headed by the entry shows the natural chain unless it says otherwise. Chains listed by the source or under a name are the forms on record and can include a tag or linker.
recombinant Flt4 extracellular domain with C-terminal 6xHis tag (baculovirus), coupled to Sepharose (P35916, form named): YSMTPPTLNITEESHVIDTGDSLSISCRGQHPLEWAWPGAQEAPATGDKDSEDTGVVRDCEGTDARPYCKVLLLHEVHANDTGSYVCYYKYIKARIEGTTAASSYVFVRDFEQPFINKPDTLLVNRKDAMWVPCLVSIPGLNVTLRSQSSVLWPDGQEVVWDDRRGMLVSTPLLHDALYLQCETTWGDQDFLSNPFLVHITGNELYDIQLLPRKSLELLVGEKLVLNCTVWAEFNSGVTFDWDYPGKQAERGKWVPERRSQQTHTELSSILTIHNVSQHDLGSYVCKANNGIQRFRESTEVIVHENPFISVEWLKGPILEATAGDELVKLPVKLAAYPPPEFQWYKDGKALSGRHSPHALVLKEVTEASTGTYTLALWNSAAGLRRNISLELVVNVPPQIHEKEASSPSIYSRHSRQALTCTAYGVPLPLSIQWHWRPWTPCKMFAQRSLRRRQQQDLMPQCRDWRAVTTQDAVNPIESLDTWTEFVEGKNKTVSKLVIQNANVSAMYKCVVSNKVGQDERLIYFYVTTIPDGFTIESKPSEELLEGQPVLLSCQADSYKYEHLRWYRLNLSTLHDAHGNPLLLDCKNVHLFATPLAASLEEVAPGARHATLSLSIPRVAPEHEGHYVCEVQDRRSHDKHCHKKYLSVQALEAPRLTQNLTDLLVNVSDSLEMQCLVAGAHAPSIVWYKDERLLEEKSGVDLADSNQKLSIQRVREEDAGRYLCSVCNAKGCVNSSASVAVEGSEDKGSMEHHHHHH

Biological target: recombinant Flt4 extracellular domain with C-terminal 6xHis tag (baculovirus), coupled to Sepharose (human) (UniProt P35916)
Test: pull-down of 35S-labelled medium with VEGFR-3 extracellular domain coupled to sepharose

B1: recombinant mouse VEGF-C (medium of Bosc23 cells transfected with mouse VEGF-C cDNA) (ligand)
chain: AHYNTEILKSIDNEWRKTQCMPREVCIDVGKEFGAATNTFFKPPCVSVYRCGGCCNSEGLQCMNTSTGYLSKTLFEITVPLSQGPKPVTISFANHTSCRCMSKLDVYRQVHSIIRR
B1 was tested, and the binding was “binds”.
